Where a name gives a salt, the structure may show the parent alone. The list shows a part of the results. The calls rarely recur for the same compound in another form.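 In K562 cells expressing nanoluciferase-fused kinases, luminescence was recorded at 4 h intervals between 2 and 18 h, normalized as percent of control with DMSO at 100% and a positive control at 0%. A significant (2 sigma) signal drop marks a time point as decreased. The authors' rule for a hit is not shown and takes in more than the number of time points.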
Tests used:
Experiment in all cases: kinase-Nluc reporter destabilization hit call (1 = scored as downregulated) (binary); higher = compound decreases kinase abundance
Settings in all cases: K562; 2-18 h
CDK7 = CDK7 (UniProt P50613)
CDK9 = CDK9 (UniProt P50750)
CHEK2 = CHEK2 (UniProt O96017)
CSF1R = CSF1R (UniProt P07333)
CSK = CSK (UniProt P41240)
CSNK1A1 = CSNK1A1 (UniProt P48729)
CSNK1D = CSNK1D (UniProt P48730)
DDR1 = DDR1 (UniProt Q08345)
DYRK1B = DYRK1B (UniProt Q9Y463)
DYRK2 = DYRK2 (UniProt Q92630)
EGFR = EGFR (UniProt P00533)
EGFR_G719S = EGFR_G719S (UniProt P00533)
EGFR_G719S_T790M = EGFR_G719S_T790M (UniProt P00533)
EGFR_L718V = EGFR_L718V (UniProt P00533)
EGFR_L858R = EGFR_L858R (UniProt P00533)
EGFR_L861Q = EGFR_L861Q (UniProt P00533)
EGFR_T790M = EGFR_T790M (UniProt P00533)
EPHA2 = EPHA2 (UniProt P29317)
ERBB3 = ERBB3 (UniProt P21860)
[1] = molecular target: ERBB4_R711C (clone: ERBB4_mut) (UniProt Q15303)

Protein sequences, listed by entry. Tags and fused reporters are not part of them. Lines headed by an entry give the natural chain unless they say otherwise; changes in a name come on top.
UniProt P50613: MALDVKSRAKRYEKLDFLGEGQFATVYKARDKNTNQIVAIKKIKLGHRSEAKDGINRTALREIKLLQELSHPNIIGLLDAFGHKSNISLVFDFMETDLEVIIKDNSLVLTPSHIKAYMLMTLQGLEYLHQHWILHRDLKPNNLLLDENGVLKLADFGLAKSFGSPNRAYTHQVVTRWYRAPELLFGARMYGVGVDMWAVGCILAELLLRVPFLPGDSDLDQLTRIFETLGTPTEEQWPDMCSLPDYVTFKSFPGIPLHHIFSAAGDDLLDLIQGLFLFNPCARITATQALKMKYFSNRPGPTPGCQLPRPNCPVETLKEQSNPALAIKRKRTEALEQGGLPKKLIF
UniProt P50750, whole entry: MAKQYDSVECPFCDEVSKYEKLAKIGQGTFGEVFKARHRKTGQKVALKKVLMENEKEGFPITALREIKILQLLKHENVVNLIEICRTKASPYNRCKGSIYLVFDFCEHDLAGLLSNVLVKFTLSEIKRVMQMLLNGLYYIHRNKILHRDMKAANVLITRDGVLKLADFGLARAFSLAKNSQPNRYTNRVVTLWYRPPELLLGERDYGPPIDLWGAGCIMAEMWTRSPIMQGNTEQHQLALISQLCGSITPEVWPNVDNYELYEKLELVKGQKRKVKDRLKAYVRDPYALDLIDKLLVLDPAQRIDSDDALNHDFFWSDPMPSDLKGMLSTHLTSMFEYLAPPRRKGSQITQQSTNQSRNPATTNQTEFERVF
UniProt O96017, whole entry: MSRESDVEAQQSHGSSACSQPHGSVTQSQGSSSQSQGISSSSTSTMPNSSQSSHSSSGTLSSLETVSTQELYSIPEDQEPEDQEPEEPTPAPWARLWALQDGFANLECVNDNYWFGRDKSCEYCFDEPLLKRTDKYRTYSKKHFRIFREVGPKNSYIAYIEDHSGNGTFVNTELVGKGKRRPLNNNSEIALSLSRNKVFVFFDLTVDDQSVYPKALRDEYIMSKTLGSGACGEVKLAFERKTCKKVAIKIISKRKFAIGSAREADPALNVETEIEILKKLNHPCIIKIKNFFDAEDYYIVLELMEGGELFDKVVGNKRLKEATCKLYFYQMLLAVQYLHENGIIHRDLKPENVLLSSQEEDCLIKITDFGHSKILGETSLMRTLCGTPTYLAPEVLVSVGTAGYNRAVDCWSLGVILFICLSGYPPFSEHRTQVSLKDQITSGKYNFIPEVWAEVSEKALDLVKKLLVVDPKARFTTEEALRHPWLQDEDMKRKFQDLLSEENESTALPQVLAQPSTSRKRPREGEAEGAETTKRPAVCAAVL
UniProt P41240: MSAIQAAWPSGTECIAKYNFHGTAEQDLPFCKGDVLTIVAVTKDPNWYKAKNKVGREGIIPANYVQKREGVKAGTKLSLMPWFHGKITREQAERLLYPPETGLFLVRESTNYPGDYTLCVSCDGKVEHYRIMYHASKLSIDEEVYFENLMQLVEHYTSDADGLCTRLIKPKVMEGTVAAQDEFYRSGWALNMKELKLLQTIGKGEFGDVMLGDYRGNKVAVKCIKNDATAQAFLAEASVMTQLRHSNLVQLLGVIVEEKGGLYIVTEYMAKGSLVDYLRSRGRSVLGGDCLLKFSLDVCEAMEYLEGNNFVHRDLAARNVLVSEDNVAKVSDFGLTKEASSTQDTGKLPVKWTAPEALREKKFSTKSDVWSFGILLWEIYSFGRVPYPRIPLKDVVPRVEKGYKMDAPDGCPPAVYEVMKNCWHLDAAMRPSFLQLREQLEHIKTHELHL
UniProt P48729: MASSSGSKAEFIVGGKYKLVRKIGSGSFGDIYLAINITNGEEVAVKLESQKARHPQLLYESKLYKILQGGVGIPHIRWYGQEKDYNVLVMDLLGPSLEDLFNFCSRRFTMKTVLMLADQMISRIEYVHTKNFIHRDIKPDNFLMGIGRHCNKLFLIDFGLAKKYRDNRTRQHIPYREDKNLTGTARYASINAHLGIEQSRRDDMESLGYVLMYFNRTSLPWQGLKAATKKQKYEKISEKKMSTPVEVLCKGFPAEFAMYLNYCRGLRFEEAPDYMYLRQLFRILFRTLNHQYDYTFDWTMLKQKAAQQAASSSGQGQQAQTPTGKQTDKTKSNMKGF
UniProt Q08345: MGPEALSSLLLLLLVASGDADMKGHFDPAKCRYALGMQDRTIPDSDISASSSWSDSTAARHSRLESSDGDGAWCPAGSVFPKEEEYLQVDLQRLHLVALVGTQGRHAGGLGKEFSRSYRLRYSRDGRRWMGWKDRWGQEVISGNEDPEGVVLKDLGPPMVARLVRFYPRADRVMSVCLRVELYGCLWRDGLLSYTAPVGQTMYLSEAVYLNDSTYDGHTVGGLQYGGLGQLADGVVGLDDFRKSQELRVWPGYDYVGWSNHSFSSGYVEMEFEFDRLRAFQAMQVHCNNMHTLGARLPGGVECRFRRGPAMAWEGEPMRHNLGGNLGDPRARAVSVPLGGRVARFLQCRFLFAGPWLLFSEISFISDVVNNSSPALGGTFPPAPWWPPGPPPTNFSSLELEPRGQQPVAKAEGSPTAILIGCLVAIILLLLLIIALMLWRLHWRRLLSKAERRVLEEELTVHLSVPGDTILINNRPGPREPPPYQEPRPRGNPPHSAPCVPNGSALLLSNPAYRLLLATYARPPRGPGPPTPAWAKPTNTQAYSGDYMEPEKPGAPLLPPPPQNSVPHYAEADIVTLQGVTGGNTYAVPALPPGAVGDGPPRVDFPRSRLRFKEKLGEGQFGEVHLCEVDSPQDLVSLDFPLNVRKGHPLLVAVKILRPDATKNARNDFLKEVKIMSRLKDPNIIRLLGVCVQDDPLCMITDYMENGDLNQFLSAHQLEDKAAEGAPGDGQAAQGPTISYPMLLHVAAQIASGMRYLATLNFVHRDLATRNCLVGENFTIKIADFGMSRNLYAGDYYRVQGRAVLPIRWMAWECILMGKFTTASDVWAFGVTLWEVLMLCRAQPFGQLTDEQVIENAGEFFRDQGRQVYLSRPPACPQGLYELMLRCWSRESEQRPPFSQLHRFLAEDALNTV
UniProt Q9Y463, whole entry, looked up: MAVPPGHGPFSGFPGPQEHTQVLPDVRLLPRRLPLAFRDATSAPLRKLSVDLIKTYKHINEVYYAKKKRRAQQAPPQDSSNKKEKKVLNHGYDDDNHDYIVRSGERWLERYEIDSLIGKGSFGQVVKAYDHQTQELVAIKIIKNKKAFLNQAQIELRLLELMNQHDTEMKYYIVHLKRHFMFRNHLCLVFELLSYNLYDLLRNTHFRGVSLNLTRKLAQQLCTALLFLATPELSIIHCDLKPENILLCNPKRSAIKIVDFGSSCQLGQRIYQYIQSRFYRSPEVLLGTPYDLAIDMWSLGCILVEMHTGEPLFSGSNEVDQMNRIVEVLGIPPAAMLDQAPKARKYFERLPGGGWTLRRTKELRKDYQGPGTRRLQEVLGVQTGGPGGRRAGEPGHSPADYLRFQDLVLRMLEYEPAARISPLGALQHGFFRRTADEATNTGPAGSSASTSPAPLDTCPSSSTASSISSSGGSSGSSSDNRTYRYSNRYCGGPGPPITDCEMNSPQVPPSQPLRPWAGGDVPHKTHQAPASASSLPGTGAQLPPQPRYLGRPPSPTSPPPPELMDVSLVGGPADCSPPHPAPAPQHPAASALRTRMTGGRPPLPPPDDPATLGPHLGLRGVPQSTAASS
UniProt Q92630: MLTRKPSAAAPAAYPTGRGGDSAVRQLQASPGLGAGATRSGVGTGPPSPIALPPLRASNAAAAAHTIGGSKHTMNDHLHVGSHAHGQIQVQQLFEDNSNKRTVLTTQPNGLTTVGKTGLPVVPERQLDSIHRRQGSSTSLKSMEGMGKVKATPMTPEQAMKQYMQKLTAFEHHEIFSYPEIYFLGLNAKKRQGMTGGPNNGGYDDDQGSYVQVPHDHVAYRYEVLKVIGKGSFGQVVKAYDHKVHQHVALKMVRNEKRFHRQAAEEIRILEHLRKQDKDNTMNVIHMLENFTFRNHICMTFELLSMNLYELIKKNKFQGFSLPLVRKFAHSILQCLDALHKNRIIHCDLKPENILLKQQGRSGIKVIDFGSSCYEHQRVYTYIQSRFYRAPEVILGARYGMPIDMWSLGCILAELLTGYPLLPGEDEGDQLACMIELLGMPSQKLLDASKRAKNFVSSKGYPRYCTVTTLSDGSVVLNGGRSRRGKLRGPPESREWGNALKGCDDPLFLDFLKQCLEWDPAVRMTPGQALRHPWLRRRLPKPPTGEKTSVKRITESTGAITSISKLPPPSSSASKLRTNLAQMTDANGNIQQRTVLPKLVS
UniProt P29317, whole entry: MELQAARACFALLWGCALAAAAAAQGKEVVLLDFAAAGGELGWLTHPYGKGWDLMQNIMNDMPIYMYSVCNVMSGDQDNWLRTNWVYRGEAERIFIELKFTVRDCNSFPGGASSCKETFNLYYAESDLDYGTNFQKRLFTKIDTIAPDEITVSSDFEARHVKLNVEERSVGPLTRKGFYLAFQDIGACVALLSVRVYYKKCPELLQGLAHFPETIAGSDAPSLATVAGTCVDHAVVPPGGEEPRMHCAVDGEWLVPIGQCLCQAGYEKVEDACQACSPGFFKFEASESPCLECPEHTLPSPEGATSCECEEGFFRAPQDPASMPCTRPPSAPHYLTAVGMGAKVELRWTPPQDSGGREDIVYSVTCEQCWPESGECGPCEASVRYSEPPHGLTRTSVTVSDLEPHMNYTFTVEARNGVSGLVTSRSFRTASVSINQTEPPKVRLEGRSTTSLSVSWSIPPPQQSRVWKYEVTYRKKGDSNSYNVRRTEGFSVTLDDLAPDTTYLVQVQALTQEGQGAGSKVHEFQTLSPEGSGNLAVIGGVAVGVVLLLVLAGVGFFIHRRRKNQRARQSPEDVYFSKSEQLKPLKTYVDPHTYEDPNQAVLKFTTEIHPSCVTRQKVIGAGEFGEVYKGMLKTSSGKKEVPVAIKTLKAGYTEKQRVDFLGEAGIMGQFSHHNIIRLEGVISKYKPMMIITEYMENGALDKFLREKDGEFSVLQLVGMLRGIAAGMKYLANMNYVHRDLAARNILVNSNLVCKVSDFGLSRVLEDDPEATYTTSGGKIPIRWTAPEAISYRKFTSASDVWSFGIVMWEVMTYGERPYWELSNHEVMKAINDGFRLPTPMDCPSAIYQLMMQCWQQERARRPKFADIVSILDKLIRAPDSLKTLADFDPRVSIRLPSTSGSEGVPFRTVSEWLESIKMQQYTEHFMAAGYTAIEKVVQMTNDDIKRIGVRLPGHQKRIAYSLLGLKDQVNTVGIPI
UniProt P21860, whole entry: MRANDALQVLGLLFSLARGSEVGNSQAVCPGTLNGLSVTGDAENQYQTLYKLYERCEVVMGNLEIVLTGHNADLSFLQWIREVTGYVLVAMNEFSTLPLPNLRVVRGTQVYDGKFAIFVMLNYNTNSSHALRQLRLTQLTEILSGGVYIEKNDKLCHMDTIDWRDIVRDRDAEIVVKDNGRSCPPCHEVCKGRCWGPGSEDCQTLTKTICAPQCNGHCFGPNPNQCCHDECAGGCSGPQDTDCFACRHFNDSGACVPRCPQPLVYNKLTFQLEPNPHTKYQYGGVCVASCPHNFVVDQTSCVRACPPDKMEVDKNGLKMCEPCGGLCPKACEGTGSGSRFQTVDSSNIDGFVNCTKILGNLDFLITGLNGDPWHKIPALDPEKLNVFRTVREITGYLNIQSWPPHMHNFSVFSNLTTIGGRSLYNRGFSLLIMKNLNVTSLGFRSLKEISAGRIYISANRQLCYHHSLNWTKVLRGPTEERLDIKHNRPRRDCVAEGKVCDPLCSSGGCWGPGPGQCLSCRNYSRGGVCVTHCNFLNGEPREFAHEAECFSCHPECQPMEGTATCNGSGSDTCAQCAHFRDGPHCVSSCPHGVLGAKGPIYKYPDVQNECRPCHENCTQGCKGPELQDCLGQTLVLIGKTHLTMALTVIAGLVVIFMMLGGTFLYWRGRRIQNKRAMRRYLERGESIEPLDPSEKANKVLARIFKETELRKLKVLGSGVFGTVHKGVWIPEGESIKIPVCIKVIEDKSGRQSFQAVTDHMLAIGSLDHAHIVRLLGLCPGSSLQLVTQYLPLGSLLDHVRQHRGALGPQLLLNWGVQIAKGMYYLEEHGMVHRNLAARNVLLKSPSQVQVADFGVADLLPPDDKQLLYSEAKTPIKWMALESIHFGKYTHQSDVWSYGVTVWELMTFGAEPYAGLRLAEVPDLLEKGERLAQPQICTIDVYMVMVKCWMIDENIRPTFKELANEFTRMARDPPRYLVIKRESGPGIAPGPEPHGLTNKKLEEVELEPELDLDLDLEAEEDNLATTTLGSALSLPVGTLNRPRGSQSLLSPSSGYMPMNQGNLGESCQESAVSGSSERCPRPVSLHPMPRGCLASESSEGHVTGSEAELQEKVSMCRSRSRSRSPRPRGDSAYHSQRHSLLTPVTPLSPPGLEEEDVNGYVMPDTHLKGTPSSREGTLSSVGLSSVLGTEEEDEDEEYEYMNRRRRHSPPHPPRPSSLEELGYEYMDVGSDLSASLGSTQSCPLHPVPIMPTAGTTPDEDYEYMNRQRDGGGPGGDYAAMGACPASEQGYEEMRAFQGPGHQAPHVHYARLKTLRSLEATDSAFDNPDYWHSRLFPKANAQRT

Measured: kinase-Nluc reporter destabilization hit call

O=c1[nH]nc(Sc2ncc([N+](=O)[O-])s2)n1-c1ccc2c(c1)OCCO2 (2.5 µM)
inactive: CDK7 = 0 | CDK9 = 0 | CHEK2 = 0 | CSF1R 0 | CSK 0 | CSNK1A1 = 0 | CSNK1D 0 | DDR1 = 0 | DYRK1B 0 | DYRK2 = 0 | EGFR 0 | EGFR_G719S 0 | EGFR_G719S_T790M 0 | EGFR_L718V 0 | EGFR_L858R 0 | EGFR_L861Q 0 | EGFR_T790M 0 | EPHA2 = 0 | ERBB3 = 0 | [1] 0

Cn1cc(-c2cn3nccc3c(-c3cnn([C@]4(CC#N)C[C@@H](C#N)C4)c3)n2)cn1 (10 µM)
inactive: CDK7 = 0 | CDK9 = 0 | CHEK2 = 0 | CSF1R 0 | CSK 0 | CSNK1A1 = 0 | CSNK1D 0 | DDR1 = 0 | DYRK1B 0 | DYRK2 = 0 | EGFR 0 | EGFR_G719S 0 | EGFR_G719S_T790M 0 | EGFR_L718V 0 | EGFR_L858R 0 | EGFR_L861Q 0 | EGFR_T790M 0 | EPHA2 = 0 | ERBB3 = 0 | [1] 0

CCN1C(C)(C)CC(Oc2ccc(C(=O)Nc3ccc(NC(=O)Nc4cc(C(C)(C)C)on4)cc3)nc2)CC1(C)C (10 µM)
inactive: CDK7 = 0 | CDK9 = 0 | CHEK2 = 0 | CSF1R 0 | CSK 0 | CSNK1A1 = 0 | CSNK1D 0 | DDR1 = 0 | DYRK1B 0 | DYRK2 = 0 | EGFR 0 | EGFR_G719S 0 | EGFR_G719S_T790M 0 | EGFR_L718V 0 | EGFR_L858R 0 | EGFR_L861Q 0 | EGFR_T790M 0 | EPHA2 = 0 | ERBB3 = 0 | [1] 0

Cc1ncc(F)c(Nc2n[nH]c3c2CN(C(=O)N2C[C@@H](C)N(CC4CCOCC4)C[C@@H]2C)C3(C)C)n1 (10 µM)
inactive: CDK7 = 0 | CDK9 = 0 | CHEK2 = 0 | CSF1R 0 | CSK 0 | CSNK1A1 = 0 | CSNK1D 0 | DDR1 = 0 | DYRK1B 0 | DYRK2 = 0 | EGFR 0 | EGFR_G719S 0 | EGFR_G719S_T790M 0 | EGFR_L718V 0 | EGFR_L858R 0 | EGFR_L861Q 0 | EGFR_T790M 0 | EPHA2 = 0 | ERBB3 = 0 | [1] 0

CCOc1cc(C(=O)N2CCC(N3CCN(C)CC3)CC2)ccc1Nc1ncc2c(n1)N(S(C)(=O)=O)c1ccccc1C(=O)N2C (10 µM)
inactive: CDK7 = 0 | CDK9 = 0 | CHEK2 = 0 | CSF1R 0 | CSK 0 | CSNK1A1 = 0 | CSNK1D 0 | DDR1 = 0 | DYRK1B 0 | DYRK2 = 0 | EGFR 0 | EGFR_G719S 0 | EGFR_G719S_T790M 0 | EGFR_L718V 0 | EGFR_L858R 0 | EGFR_L861Q 0 | EGFR_T790M 0 | EPHA2 = 0 | ERBB3 = 0 | [1] 0

3 compounds out of the list, ordered by number of heavy atoms, ascending:
O=c1[nH]nc(Sc2ncc([N+](=O)[O-])s2)n1-c1ccc2c(c1)OCCO2 (2.5 µM)
inactive: CDK7 = 0 | CDK9 = 0 | CHEK2 = 0 | CSF1R 0 | CSK 0 | CSNK1A1 = 0 | CSNK1D 0 | DDR1 = 0 | DYRK1B 0 | DYRK2 = 0 | EGFR 0 | EGFR_G719S 0 | EGFR_G719S_T790M 0 | EGFR_L718V 0 | EGFR_L858R 0 | EGFR_L861Q 0 | EGFR_T790M 0 | EPHA2 = 0 | ERBB3 = 0 | [1] 0

CCN1C(C)(C)CC(Oc2ccc(C(=O)Nc3ccc(NC(=O)Nc4cc(C(C)(C)C)on4)cc3)nc2)CC1(C)C (10 µM)
inactive: CDK7 = 0 | CDK9 = 0 | CHEK2 = 0 | CSF1R 0 | CSK 0 | CSNK1A1 = 0 | CSNK1D 0 | DDR1 = 0 | DYRK1B 0 | DYRK2 = 0 | EGFR 0 | EGFR_G719S 0 | EGFR_G719S_T790M 0 | EGFR_L718V 0 | EGFR_L858R 0 | EGFR_L861Q 0 | EGFR_T790M 0 | EPHA2 = 0 | ERBB3 = 0 | [1] 0

CCOc1cc(C(=O)N2CCC(N3CCN(C)CC3)CC2)ccc1Nc1ncc2c(n1)N(S(C)(=O)=O)c1ccccc1C(=O)N2C (10 µM)
inactive: CDK7 = 0 | CDK9 = 0 | CHEK2 = 0 | CSF1R 0 | CSK 0 | CSNK1A1 = 0 | CSNK1D 0 | DDR1 = 0 | DYRK1B 0 | DYRK2 = 0 | EGFR 0 | EGFR_G719S 0 | EGFR_G719S_T790M 0 | EGFR_L718V 0 | EGFR_L858R 0 | EGFR_L861Q 0 | EGFR_T790M 0 | EPHA2 = 0 | ERBB3 = 0 | [1] 0

(continued)

C[C@]1(O)C[C@@](N)(c2ccc(-c3nc4n(c3-c3ccccc3)COc3ccncc3-4)cc2)C1 [TAS-117 (hydrochloride)] (10 µM)
inactive: CDK7 = 0 | CDK9 = 0 | CHEK2 = 0 | CSF1R 0 | CSK 0 | CSNK1A1 = 0 | CSNK1D 0 | DDR1 = 0 | DYRK1B 0 | DYRK2 = 0 | EGFR 0 | EGFR_G719S 0 | EGFR_G719S_T790M 0 | EGFR_L718V 0 | EGFR_L858R 0 | EGFR_L861Q 0 | EGFR_T790M 0 | EPHA2 = 0 | ERBB3 = 0 | [1] 0

CNC(=O)c1nnc(NC(=O)C2CC2)cc1Nc1cccc(-c2ncn(C)n2)c1OC [Deucravacitinib] (10 µM)
inactive: CDK7 = 0 | CDK9 = 0 | CHEK2 = 0 | CSF1R 0 | CSK 0 | CSNK1A1 = 0 | CSNK1D 0 | DDR1 = 0 | DYRK1B 0 | DYRK2 = 0 | EGFR 0 | EGFR_G719S 0 | EGFR_G719S_T790M 0 | EGFR_L718V 0 | EGFR_L858R 0 | EGFR_L861Q 0 | EGFR_T790M 0 | EPHA2 = 0 | ERBB3 = 0 | [1] 0

CC(=O)NCC(=O)N[C@@H](C)C(=O)N[C@@H](CCC(N)=O)C(=O)N[C@@H](Cc1ccccc1)C(=O)N[C@@H](CO)C(=O)N[C@@H](CCCCN)C(=O)N[C@H](C(=O)N[C@@H](C)C(=O)N[C@@H](C)C(=O)N[C@@H](CCCCN)C(=O)O)[C@@H](C)O (10 µM)
inactive: CDK7 = 0 | CDK9 = 0 | CHEK2 = 0 | CSF1R 0 | CSK 0 | CSNK1A1 = 0 | CSNK1D 0 | DDR1 = 0 | DYRK1B 0 | DYRK2 = 0 | EGFR 0 | EGFR_G719S 0 | EGFR_G719S_T790M 0 | EGFR_L718V 0 | EGFR_L858R 0 | EGFR_L861Q 0 | EGFR_T790M 0 | EPHA2 = 0 | ERBB3 = 0 | [1] 0

O=c1ccc2cc(O)c(O)cc2o1 [Esculetin] (10 µM)
inactive: CDK7 = 0 | CDK9 = 0 | CHEK2 = 0 | CSF1R 0 | CSK 0 | CSNK1A1 = 0 | CSNK1D 0 | DDR1 = 0 | DYRK1B 0 | DYRK2 = 0 | EGFR 0 | EGFR_G719S 0 | EGFR_G719S_T790M 0 | EGFR_L718V 0 | EGFR_L858R 0 | EGFR_L861Q 0 | EGFR_T790M 0 | EPHA2 = 0 | ERBB3 = 0 | [1] 0

CC(=O)c1cc(O)ccc1O [2,5-Dihydroxyacetophenone] (10 µM)
inactive: CDK7 = 0 | CDK9 = 0 | CHEK2 = 0 | CSF1R 0 | CSK 0 | CSNK1A1 = 0 | CSNK1D 0 | DDR1 = 0 | DYRK1B 0 | DYRK2 = 0 | EGFR 0 | EGFR_G719S 0 | EGFR_G719S_T790M 0 | EGFR_L718V 0 | EGFR_L858R 0 | EGFR_L861Q 0 | EGFR_T790M 0 | EPHA2 = 0 | ERBB3 = 0 | [1] 0

O=C(Nc1nc2cccc(-c3ccc(CN4CCS(=O)(=O)CC4)cc3)n2n1)C1CC1 [Filgotinib] (2.5 µM)
inactive: CDK7 = 0 | CDK9 = 0 | CHEK2 = 0 | CSF1R 0 | CSK 0 | CSNK1A1 = 0 | CSNK1D 0 | DDR1 = 0 | DYRK1B 0 | DYRK2 = 0 | EGFR 0 | EGFR_G719S 0 | EGFR_G719S_T790M 0 | EGFR_L718V 0 | EGFR_L858R 0 | EGFR_L861Q 0 | EGFR_T790M 0 | EPHA2 = 0 | ERBB3 = 0 | [1] 0

COc1ccc(F)cc1C(=O)NCc1ccc(-c2nn([C@@H](C)C(F)(F)F)c(N)c2C(N)=O)cc1 [Pirtobrutinib] (10 µM)
inactive: CDK7 = 0 | CDK9 = 0 | CHEK2 = 0 | CSF1R 0 | CSK 0 | CSNK1A1 = 0 | CSNK1D 0 | DDR1 = 0 | DYRK1B 0 | DYRK2 = 0 | EGFR 0 | EGFR_G719S 0 | EGFR_G719S_T790M 0 | EGFR_L718V 0 | EGFR_L858R 0 | EGFR_L861Q 0 | EGFR_T790M 0 | EPHA2 = 0 | ERBB3 = 0 | [1] 0

O=C(O)[C@]1(Cc2cccc(Nc3nccs3)n2)CC[C@@H](Oc2cccc(Cl)c2F)CC1 (2.5 µM)
inactive: CDK7 = 0 | CDK9 = 0 | CHEK2 = 0 | CSF1R 0 | CSK 0 | CSNK1A1 = 0 | CSNK1D 0 | DDR1 = 0 | DYRK1B 0 | DYRK2 = 0 | EGFR 0 | EGFR_G719S 0 | EGFR_G719S_T790M 0 | EGFR_L718V 0 | EGFR_L858R 0 | EGFR_L861Q 0 | EGFR_T790M 0 | EPHA2 = 0 | ERBB3 = 0 | [1] 0

COc1ccc(C2CC(c3ccc(Cl)cc3)=NN2c2nc(-c3ccncc3)cs2)cc1 (stereo not given) [mTOR inhibitor-8] (10 µM)
inactive: CDK7 = 0 | CDK9 = 0 | CHEK2 = 0 | CSF1R 0 | CSK 0 | CSNK1A1 = 0 | CSNK1D 0 | DDR1 = 0 | DYRK1B 0 | DYRK2 = 0 | EGFR 0 | EGFR_G719S 0 | EGFR_G719S_T790M 0 | EGFR_L718V 0 | EGFR_L858R 0 | EGFR_L861Q 0 | EGFR_T790M 0 | EPHA2 = 0 | ERBB3 = 0 | [1] 0

CC(C)n1nc(C#Cc2ccccc2)c2c(N)ncnc21 (10 µM)
inactive: CDK7 = 0 | CDK9 = 0 | CHEK2 = 0 | CSF1R 0 | CSK 0 | CSNK1A1 = 0 | CSNK1D 0 | DDR1 = 0 | DYRK1B 0 | DYRK2 = 0 | EGFR 0 | EGFR_G719S 0 | EGFR_G719S_T790M 0 | EGFR_L718V 0 | EGFR_L858R 0 | EGFR_L861Q 0 | EGFR_T790M 0 | EPHA2 = 0 | ERBB3 = 0 | [1] 0

CN(C)C(=O)c1cc2cnc(Nc3ccc(NC(=O)C4(C(=O)Nc5ccc(F)cc5)CC4)cc3)nc2n1C1CCCC1 (2 µM)
inactive: CDK7 = 0 | CDK9 = 0 | CHEK2 = 0 | CSF1R 0 | CSK 0 | CSNK1A1 = 0 | CSNK1D 0 | DDR1 = 0 | DYRK1B 0 | DYRK2 = 0 | EGFR 0 | EGFR_G719S 0 | EGFR_G719S_T790M 0 | EGFR_L718V 0 | EGFR_L858R 0 | EGFR_L861Q 0 | EGFR_T790M 0 | EPHA2 = 0 | ERBB3 = 0 | [1] 0

Reference: the supplement of paper PMC12823440, “Inhibitors supercharge kinase turnover through native proteolytic circuits” (Nature, 2025)
